Experimental data published in paper PMC7917936 (International Journal of Molecular Sciences, 2021).
HELM strings list residues between dots; [ac] is acetyl, [am] amide, other brackets name non-standard units.

Test: general procedure: solution-phase peptide synthesis; COMU/DIEA
Conditions: conjugation step

**Q.** With PEPTIDE1{[bGal-AAC-C6].F.F.F.F}$$$$V2.0 as the substance, how does the conjugation yield read?
**A.** 66%
